The supplement of paper PMC12067093, “Discovery and optimisation of a covalent ligand for TRIM25 and its application to targeted protein ubiquitination” (Chemical Science, 2025)
The other results are listed elsewhere or left out.

Protein sequences, listed by entry. Tags and fused reporters are not part of them. Lines headed by an entry give the natural chain unless they say otherwise; changes in a name come on top.
UniProt Q9HAU4, whole entry, looked up: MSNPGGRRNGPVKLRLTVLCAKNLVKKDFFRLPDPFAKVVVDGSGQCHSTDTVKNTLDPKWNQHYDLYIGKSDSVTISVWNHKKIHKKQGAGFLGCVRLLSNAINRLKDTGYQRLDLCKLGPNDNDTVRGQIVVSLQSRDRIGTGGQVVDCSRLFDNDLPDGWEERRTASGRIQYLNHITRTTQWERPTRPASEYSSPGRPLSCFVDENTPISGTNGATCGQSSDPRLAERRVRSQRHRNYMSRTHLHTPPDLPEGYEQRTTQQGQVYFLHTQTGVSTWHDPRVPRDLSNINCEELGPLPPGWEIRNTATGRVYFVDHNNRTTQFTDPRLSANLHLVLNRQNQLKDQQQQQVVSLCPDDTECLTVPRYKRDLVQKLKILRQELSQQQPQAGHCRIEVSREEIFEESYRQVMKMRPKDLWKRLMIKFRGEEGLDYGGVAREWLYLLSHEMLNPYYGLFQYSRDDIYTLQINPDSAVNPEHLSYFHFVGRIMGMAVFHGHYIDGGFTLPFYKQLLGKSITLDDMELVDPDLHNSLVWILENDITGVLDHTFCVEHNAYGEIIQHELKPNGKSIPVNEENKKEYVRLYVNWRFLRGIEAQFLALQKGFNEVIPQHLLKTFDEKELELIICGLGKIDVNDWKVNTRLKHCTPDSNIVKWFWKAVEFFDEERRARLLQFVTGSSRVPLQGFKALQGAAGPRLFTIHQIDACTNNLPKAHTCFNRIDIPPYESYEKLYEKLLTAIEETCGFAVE
UniProt O75643, whole entry, looked up: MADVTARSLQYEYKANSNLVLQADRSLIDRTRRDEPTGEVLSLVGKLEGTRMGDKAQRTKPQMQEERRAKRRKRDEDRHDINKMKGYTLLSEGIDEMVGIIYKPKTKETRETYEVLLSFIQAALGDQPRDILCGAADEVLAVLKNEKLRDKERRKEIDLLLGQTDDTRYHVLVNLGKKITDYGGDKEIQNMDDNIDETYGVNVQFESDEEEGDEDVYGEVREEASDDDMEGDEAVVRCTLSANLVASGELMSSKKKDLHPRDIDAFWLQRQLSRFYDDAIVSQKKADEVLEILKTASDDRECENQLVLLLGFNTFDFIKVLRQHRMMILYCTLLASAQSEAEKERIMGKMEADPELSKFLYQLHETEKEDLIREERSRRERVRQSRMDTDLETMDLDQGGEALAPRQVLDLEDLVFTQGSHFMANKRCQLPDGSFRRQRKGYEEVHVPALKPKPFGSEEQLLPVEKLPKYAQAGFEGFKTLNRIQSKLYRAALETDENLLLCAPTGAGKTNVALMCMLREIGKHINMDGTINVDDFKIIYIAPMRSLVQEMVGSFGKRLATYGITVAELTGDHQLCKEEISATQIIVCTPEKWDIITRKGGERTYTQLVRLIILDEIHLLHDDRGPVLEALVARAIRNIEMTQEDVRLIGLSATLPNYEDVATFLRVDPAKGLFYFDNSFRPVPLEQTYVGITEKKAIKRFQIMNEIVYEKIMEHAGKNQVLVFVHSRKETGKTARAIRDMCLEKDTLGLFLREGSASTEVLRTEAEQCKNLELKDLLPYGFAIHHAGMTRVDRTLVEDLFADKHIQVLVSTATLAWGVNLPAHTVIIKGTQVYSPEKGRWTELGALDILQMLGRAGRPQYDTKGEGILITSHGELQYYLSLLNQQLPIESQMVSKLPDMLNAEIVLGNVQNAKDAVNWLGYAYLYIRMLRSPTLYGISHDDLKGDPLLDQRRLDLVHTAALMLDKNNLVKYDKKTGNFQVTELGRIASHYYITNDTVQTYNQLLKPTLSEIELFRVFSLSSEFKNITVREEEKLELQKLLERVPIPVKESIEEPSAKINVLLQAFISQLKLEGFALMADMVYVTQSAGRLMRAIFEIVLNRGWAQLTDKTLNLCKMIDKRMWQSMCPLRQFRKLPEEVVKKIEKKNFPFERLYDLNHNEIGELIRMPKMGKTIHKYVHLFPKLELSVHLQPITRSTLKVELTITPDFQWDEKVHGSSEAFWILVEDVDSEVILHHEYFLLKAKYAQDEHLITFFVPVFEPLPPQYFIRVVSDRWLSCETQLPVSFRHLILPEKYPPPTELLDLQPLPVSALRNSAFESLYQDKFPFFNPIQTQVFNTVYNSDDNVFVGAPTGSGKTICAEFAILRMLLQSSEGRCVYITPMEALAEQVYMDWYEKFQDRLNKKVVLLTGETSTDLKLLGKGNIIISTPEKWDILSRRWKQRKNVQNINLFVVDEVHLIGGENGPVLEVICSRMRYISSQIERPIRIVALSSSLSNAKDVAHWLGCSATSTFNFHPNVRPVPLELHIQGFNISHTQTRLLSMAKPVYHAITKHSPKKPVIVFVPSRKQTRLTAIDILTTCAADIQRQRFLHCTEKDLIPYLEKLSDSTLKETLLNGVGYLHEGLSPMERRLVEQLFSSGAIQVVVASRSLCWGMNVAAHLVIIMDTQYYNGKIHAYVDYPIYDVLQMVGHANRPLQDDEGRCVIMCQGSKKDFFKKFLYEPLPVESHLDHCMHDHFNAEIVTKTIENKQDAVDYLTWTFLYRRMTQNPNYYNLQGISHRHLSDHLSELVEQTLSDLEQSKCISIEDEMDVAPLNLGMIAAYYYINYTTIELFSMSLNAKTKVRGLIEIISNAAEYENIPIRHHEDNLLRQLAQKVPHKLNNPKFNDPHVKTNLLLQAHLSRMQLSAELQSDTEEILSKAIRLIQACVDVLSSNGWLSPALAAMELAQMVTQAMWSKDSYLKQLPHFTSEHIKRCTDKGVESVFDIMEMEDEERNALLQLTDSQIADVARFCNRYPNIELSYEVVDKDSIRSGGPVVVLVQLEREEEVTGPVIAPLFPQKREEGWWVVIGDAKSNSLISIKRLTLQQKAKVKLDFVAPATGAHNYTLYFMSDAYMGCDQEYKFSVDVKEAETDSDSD
UniProt P84022, whole entry, looked up: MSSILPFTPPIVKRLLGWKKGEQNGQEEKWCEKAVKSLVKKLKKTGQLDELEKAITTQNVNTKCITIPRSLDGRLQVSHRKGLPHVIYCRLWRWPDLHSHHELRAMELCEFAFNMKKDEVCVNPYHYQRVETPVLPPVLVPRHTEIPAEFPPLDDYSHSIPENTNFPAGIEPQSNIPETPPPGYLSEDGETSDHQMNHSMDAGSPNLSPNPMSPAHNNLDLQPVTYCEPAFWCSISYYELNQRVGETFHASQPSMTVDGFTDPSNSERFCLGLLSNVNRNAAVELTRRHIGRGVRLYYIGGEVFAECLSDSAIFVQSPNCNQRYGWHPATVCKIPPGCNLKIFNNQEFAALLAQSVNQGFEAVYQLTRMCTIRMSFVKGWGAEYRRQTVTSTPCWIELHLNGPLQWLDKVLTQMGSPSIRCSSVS
UniProt Q8IY18: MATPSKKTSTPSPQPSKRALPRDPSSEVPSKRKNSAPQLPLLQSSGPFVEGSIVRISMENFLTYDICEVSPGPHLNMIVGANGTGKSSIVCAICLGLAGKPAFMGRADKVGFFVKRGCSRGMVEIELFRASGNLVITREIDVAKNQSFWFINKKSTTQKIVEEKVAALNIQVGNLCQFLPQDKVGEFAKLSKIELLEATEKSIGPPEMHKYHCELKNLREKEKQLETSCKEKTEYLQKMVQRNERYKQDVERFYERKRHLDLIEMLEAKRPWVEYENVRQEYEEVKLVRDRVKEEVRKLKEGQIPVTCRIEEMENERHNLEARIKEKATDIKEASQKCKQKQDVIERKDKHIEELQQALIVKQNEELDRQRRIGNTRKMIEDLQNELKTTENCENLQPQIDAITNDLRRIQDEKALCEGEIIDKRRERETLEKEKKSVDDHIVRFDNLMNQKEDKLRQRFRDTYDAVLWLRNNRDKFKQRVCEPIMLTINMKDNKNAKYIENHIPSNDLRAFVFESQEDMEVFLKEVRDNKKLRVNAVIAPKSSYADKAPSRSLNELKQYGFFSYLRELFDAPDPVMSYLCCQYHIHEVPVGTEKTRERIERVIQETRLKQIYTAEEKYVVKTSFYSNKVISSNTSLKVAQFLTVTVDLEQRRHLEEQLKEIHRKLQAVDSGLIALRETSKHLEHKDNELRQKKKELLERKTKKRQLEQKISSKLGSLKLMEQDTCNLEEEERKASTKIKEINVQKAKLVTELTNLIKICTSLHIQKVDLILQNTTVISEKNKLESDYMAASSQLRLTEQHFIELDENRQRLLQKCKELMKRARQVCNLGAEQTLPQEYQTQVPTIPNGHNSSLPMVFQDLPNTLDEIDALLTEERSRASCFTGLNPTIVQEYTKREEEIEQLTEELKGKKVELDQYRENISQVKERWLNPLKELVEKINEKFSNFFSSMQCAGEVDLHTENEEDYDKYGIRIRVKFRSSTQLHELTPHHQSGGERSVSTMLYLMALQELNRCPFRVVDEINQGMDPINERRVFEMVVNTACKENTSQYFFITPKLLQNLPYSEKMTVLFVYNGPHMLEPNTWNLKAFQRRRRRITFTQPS

Compound: Cc1cc(ccc1-c1ccccc1)C(=O)N1CCCN(CC1)C(=O)CCl [compound 10]
Test: probe-labelled cysteine peptide fold change vs DMSO (competition) (log2 fold change); higher = less target engagement (more negative = stronger competition)
Details: THP-1, incubation time: 4 h
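Note: competitive profiling in live THP-1 cells: cysteine peptides tagged with an iodoacetamide desthiobiotin (IA-DTB) probe, intensity after compound treatment relative to DMSO-treated cells.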

Target | probe-labelled cysteine peptide fold change (10 µM) | probe-labelled cysteine peptide fold change (50 µM)
SMURF2_Q9HAU4_706_LFTIHQIDACTNNLPK (UniProt Q9HAU4) | -0.159 | -0.59
SNRNP200_O75643_1592_FLHCTEK (UniProt O75643) | 0.134 | 0.133
SMG1_Q96Q15_3587_SVACSPK (UniProt Q96Q15) | -0.222 | -0.23
SNRNP200_O75643_1706_CVIMCQGSKK (UniProt O75643) | -0.335 | -0.344
SNRNP200_O75643_1127_MWQSMCPLR (UniProt O75643) | -0.0661 | 0.03
SMAD3_P84022_394_QTVTSTPCWIELHLNGPLQWLDK (UniProt P84022) | 0.0484 | -0.102
SMC5_Q8IY18_417_ALCEGEIIDK (UniProt Q8IY18) | 0.116 | 0.0585
